Patent publication US20020182595, “Method of identifying cellular regulators of adeno-associated virus (AAV)” (published 2002)
Construct, isoform or probe ends are uncertain for at least one entry. Where cells or extracts were used, other partners may take part. Where a protein sequence is shown, tags need not be part of it.

Target: T1, ZF5C clone A25 GAL4 activation domain fusion (Homo sapiens) (UniProt O43829)
T1 sequence (looked up): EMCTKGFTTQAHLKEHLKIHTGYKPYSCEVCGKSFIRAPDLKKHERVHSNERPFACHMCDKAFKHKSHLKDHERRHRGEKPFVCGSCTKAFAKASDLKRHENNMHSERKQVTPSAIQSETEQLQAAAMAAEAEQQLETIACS
Assay: one hybrid
Conditions: yeast LacZ activation; protein in cells; protein details: GAL4 activation domain (pGAD-GH)

“AGCTTCAGTGAGCGAGCGAGCGCGCAGGTTCGAAGTGAGCGAGCGAGCGCGCAGGTGAGCGAGCGAGCGCGCAGC (double strand) [three tandem RRS upstream of LacZ (YM.RRS3.LacZ)]”: binds.
